In paper PMC5650356:

T1: Flag-tagged FAM83D (family with sequence similarity 83, member D) (human) (UniProt Q9H4H8)
T1 sequence: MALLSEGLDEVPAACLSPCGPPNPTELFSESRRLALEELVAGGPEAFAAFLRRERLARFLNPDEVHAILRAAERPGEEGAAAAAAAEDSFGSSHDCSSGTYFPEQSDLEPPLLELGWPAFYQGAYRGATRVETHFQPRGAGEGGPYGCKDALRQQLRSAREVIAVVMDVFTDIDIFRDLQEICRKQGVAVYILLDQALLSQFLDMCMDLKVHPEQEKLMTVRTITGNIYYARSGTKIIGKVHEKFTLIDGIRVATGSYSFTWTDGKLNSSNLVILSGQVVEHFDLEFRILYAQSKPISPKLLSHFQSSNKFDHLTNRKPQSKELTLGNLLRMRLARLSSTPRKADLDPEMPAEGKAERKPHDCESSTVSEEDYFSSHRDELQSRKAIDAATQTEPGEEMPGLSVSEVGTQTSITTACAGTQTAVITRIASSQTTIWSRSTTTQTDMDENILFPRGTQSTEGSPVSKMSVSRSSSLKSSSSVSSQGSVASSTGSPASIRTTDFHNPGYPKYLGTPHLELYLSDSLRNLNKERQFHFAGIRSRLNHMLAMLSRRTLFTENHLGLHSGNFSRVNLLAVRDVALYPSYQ

B1: Flag-tagged FAM83D (family with sequence similarity 83, member D) (protein, UniProt Q9H4H8 1-585)
chain: T1 sequence

Tests used:
[1] = molecular target: T1, Flag-tagged FAM83D (family with sequence similarity 83, member D) (human); experiment: co-IP; flag-tagged AGS/FAM83D cells, mitotic (300nM nocodazole 24h, shake-off); NP-40 lysis buffer, pre-cleared; primary antibodies overnight at 4 °C, protein A/G plus agarose 4h at 4 °C; five washes in lysis buffer; Western blot
[2] = molecular target: α-tubulin (human (endogenous in AGS)); experiment: as above

Molecule | binding [1] | binding [2]
α-tubulin (human (endogenous in AGS)) | binds | 
B1 |  | binds

No constants are given. Whether binding was seen depends on the method and setting. In cells and extracts the contact can be indirect. A result given as binding can be weak or reduced; the word gives no strength. Tags and fused reporters may be left off the sequences shown.
